Paper doi:10.1101/2024.01.28.577638
Like-named read-outs stand apart in the source and are kept apart here. No constants are given. Whether binding was seen depends on the method and setting. Binding seen in cells or lysates may run through a third protein. Some entries that bind do so weakly or less than the wild type.

Sequences of proteins named here, by UniProt entry; tags and fusion partners are left off.
UniProt Q96DH6: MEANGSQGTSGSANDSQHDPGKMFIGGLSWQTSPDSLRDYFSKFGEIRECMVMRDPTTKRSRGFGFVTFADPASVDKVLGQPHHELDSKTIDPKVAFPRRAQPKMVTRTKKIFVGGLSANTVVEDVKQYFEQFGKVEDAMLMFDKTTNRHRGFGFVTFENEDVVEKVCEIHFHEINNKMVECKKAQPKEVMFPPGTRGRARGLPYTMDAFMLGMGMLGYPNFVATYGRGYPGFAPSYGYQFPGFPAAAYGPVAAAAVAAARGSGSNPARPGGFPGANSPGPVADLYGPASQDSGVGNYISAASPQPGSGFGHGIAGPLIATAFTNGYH
UniProt P35222: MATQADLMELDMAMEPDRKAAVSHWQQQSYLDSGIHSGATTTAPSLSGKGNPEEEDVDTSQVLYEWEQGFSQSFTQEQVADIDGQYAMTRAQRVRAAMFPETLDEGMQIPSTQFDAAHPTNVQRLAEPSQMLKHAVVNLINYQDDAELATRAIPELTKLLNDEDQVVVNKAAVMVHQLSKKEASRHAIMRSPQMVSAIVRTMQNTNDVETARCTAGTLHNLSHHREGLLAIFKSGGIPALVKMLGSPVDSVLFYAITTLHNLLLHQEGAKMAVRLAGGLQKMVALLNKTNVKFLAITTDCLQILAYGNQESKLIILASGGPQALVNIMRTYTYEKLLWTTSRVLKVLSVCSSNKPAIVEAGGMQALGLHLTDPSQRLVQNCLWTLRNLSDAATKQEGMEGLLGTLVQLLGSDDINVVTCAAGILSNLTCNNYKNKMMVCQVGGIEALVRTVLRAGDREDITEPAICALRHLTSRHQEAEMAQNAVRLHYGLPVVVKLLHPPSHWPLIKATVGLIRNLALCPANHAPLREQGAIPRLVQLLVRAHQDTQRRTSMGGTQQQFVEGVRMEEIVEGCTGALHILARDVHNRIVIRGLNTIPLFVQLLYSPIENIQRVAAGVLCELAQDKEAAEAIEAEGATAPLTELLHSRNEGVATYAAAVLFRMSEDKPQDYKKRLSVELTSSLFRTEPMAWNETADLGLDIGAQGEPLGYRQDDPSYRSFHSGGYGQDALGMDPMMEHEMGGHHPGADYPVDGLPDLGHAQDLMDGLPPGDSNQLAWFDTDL
UniProt Q15717: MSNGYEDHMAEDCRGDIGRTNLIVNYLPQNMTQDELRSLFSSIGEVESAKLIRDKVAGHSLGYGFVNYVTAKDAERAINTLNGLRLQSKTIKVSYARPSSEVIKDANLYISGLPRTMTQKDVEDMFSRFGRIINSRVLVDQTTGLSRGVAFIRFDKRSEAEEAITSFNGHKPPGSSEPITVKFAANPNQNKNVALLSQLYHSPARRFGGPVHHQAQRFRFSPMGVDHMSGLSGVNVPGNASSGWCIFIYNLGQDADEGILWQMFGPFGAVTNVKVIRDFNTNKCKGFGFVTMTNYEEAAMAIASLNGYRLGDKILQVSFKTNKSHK

What was measured:
Test in all cases: co-IP
[1] = target: Musashi-2 (human (endogenous in K562, HEL and primary AML cells)) (UniProt Q96DH6)
[2] = target: Musashi-2 (human (endogenous in K562, HEL and primary AML cells)) (UniProt Q96DH6); remark: listed apart in the source
[3] = target: β-catenin (human (endogenous in K562, HEL and primary AML cells)) (UniProt P35222)

Row | binding [1] | binding [2] | binding [3] | Substance
1 | binds | binds | – | β-catenin (from UniProt P35222 1-781)
2 | – | – | binds | HuR (from UniProt Q15717 1-326)
